# This is one part of the list.
# Assays:
# Test in all cases: glycan array binding signal (z-score within array); higher = stronger binding
# Settings in all cases: glycan notation: IUPAC condensed, linker removed
# [1] = target: Gal(b1-3)[Fuc(a1-4)]GlcNAc(b1-3)Gal(b1-4)[Fuc(a1-3)]GlcNAc
# Summary of the method: (§1)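 The binding signal is a Z-score computed within each array. Data were drawn from 3228 arrays in the Consortium for Functional Glycomics database, restricted to those with a known protein sequence. Scores were averaged over arrays of the same protein sequence at different concentrations or buffers, and over linkers, and negative values can be taken as non-binding.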
# [2] = target: Gal(b1-3)[GlcNAc(b1-6)]GalNAc
# Summary of the method: as §1
# [3] = target: Gal(b1-3)[Neu5Ac(a2-6)]GalNAc
# Summary of the method: as §1
# [4] = target: Gal(b1-3)[Neu5Ac(a2-6)]GlcNAc(b1-6)Gal(b1-4)Glc
# Summary of the method: as §1
# [5] = target: Gal(b1-3)[Neu5Ac(b2-6)]GalNAc
# Summary of the method: as §1
# [6] = target: Gal(b1-4)GalNAc(a1-3)[Fuc(a1-2)]Gal(b1-4)GlcNAc
# Summary of the method: as §1
# [7] = target: Gal(b1-4)GalNAc(b1-3)[Fuc(a1-2)]Gal(b1-4)GlcNAc
# Summary of the method: as §1
# [8] = target: Gal(b1-4)Glc
# Summary of the method: as §1
# [9] = target: Gal(b1-4)Glc6S
# Summary of the method: as §1
# [10] = target: Gal(b1-4)GlcNAc
# Summary of the method: as §1
# [11] = target: Gal(b1-4)GlcNAc(a1-6)Gal(b1-4)GlcNAc
# Summary of the method: as §1
# [12] = target: Gal(b1-4)GlcNAc(b1-2)Man(a1-3)[Gal(b1-4)GlcNAc(b1-2)Man(a1-6)]Man(b1-4)GlcNAc(b1-4)GlcNAc
# Summary of the method: as §1
# [13] = target: Gal(b1-4)GlcNAc(b1-3)Gal(b1-3)GlcNAc
# Summary of the method: as §1
# [14] = target: Gal(b1-4)GlcNAc(b1-3)Gal(b1-4)Glc
# Summary of the method: as §1
# [15] = target: Gal(b1-4)GlcNAc(b1-3)Gal(b1-4)GlcNAc
# Summary of the method: as §1
# [16] = target: Gal(b1-4)GlcNAc(b1-3)Gal(b1-4)GlcNAc(b1-3)Gal(b1-4)GlcNAc
# Summary of the method: as §1
# [17] = target: Gal(b1-4)GlcNAc(b1-3)Gal(b1-4)[Fuc(a1-3)]GlcNAc(b1-3)Gal(b1-4)[Fuc(a1-3)]GlcNAc
# Summary of the method: as §1
# [18] = target: Gal(b1-4)GlcNAc(b1-3)GalNAc
# Summary of the method: as §1
# [19] = target: Gal(b1-4)GlcNAc(b1-3)[Gal(b1-4)GlcNAc(b1-6)]Gal(b1-4)GlcNAc
# Summary of the method: as §1
# [20] = target: Gal(b1-4)GlcNAc(b1-3)[GlcNAc(b1-6)]Gal(b1-4)GlcNAc
# Summary of the method: as §1
# [21] = target: Gal(b1-4)GlcNAc(b1-6)Gal(b1-4)GlcNAc
# Summary of the method: as §1
# [22] = target: Gal(b1-4)GlcNAc(b1-6)Gal(b1-4)GlcNAc(b1-6)GalNAc
# Summary of the method: as §1
# [23] = target: Gal(b1-4)GlcNAc(b1-6)GalNAc
# Summary of the method: as §1
# [24] = target: Gal(b1-4)GlcNAc(b1-6)[Gal(b1-3)]GalNAc
# Summary of the method: as §1
# [25] = target: Gal3S(b1-3)GalNAc
# Summary of the method: as §1
# [26] = target: Gal3S(b1-3)GlcNAc
# Summary of the method: as §1
# [27] = target: Gal3S(b1-3)[Fuc(a1-4)]GlcNAc
# Summary of the method: as §1
# [28] = target: Gal3S(b1-4)Glc
# Summary of the method: as §1
# [29] = target: Gal3S(b1-4)Glc6S
# Summary of the method: as §1
# [30] = target: Gal3S(b1-4)GlcNAc
# Summary of the method: as §1
# [31] = target: Gal3S(b1-4)GlcNAc6S
# Summary of the method: as §1
# [32] = target: Gal3S(b1-4)[Fuc(a1-3)]Glc
# Summary of the method: as §1
# [33] = target: Gal3S4S(b1-4)GlcNAc
# Summary of the method: as §1
# [34] = target: Gal3S6S(b1-4)GlcNAc
# Summary of the method: as §1
# [35] = target: Gal3S6S(b1-4)GlcNAc6S
# Summary of the method: as §1
# [36] = target: Gal4S(b1-4)GlcNAc
# Summary of the method: as §1
# [37] = target: Gal4S6S(b1-4)GlcNAc
# Summary of the method: as §1
# [38] = target: Gal6S(b1-4)Glc
# Summary of the method: as §1
# [39] = target: Gal6S(b1-4)Glc6S
# Summary of the method: as §1
# [40] = target: Gal6S(b1-4)GlcNAc
# Summary of the method: as §1
# [41] = target: Gal6S(b1-4)GlcNAc6S
# Summary of the method: as §1
# [42] = target: GalNAc(a1-3)Gal
# Summary of the method: as §1
# [43] = target: GalNAc(a1-3)GalNAc
# Summary of the method: as §1
# [44] = target: GalNAc(b1-3)Gal
# Summary of the method: as §1
# [45] = target: GalNAc(b1-3)Gal(a1-4)Gal(b1-4)GlcNAc
# Summary of the method: as §1
binder,measurement,setting,value
"SLLPI (Mus musculus), Q9D9X8 (protein) MGICMSMYTQVLVPVDADGDHHILWSRFYERWGSCFNPCAGLVNCLPPHSSALYLCHRMEARSRAPRRQLCPPGITWLALAYLLSCLLASSKAKVFSRCELAKEMHDFGLDGYRGYNLADWVCLAYYTSGFNTNAVDHEADGSTNNGIFQISSRRWCRTLASNGPNLCRIYCTDLLNNDLKDSIVCAMKIVQEPLGLGYWEAWRHHCQGRDLSDWVDGCDF",glycan array binding signal (z-score),[1],-0.236
same,glycan array binding signal (z-score),[2],0.123
same,glycan array binding signal (z-score),[3],0.64
same,glycan array binding signal (z-score),[4],-0.975
same,glycan array binding signal (z-score),[5],-0.002
same,glycan array binding signal (z-score),[6],-0.169
same,glycan array binding signal (z-score),[7],-0.34
same,glycan array binding signal (z-score),[8],-0.143
same,glycan array binding signal (z-score),[9],0.537
same,glycan array binding signal (z-score),[10],-0.462
same,glycan array binding signal (z-score),[11],0.37
same,glycan array binding signal (z-score),[12],-0.577
same,glycan array binding signal (z-score),[13],-1.4
same,glycan array binding signal (z-score),[14],-0.669
same,glycan array binding signal (z-score),[15],-0.088
same,glycan array binding signal (z-score),[16],0.415
same,glycan array binding signal (z-score),[17],-0.466
same,glycan array binding signal (z-score),[18],-0.109
same,glycan array binding signal (z-score),[19],-0.281
same,glycan array binding signal (z-score),[20],-0.03
same,glycan array binding signal (z-score),[21],0.045
same,glycan array binding signal (z-score),[22],-1.02
same,glycan array binding signal (z-score),[23],0.347
same,glycan array binding signal (z-score),[24],-0.826
same,glycan array binding signal (z-score),[25],1.84
same,glycan array binding signal (z-score),[26],3.28
same,glycan array binding signal (z-score),[27],1.61
same,glycan array binding signal (z-score),[28],-0.618
same,glycan array binding signal (z-score),[29],3.45
same,glycan array binding signal (z-score),[30],1.39
same,glycan array binding signal (z-score),[31],1.11
same,glycan array binding signal (z-score),[32],1.15
same,glycan array binding signal (z-score),[33],2.18
same,glycan array binding signal (z-score),[34],2
same,glycan array binding signal (z-score),[35],2.4
same,glycan array binding signal (z-score),[36],1.32
same,glycan array binding signal (z-score),[37],1.67
same,glycan array binding signal (z-score),[38],0.405
same,glycan array binding signal (z-score),[39],2.19
same,glycan array binding signal (z-score),[40],2.83
same,glycan array binding signal (z-score),[41],2.04
same,glycan array binding signal (z-score),[42],1.01
same,glycan array binding signal (z-score),[43],0.6
same,glycan array binding signal (z-score),[44],0.945
same,glycan array binding signal (z-score),[45],-0.376

# Shown bar-delimited: entries from further up.
binder | measurement | setting | value
SLLPI (Mus musculus), Q9D9X8 (protein) MGICMSMYTQVLVPVDADGDHHILWSRFYERWGSCFNPCAGLVNCLPPHSSALYLCHRMEARSRAPRRQLCPPGITWLALAYLLSCLLASSKAKVFSRCELAKEMHDFGLDGYRGYNLADWVCLAYYTSGFNTNAVDHEADGSTNNGIFQISSRRWCRTLASNGPNLCRIYCTDLLNNDLKDSIVCAMKIVQEPLGLGYWEAWRHHCQGRDLSDWVDGCDF | glycan array binding signal (z-score) | [13] | -1.4
same | glycan array binding signal (z-score) | [28] | -0.618
same | glycan array binding signal (z-score) | [37] | 1.67
